Laboratory results: US20210115521A1, “METHOD FOR INHIBITING TUMOR PROGRESSION OR DETERMINING TUMOR PROGRESSION STATE IN GASTRIC CANCER” (National Tsing Hua University, priority 2019, published 2021)
For at least one compound, name, drawing or mass did not settle the structure.

Tests used:
MKN28 xenografts = test: MKN28 xenograft tumor growth in nude mice; format: in vivo; conditions: 50 mg/kg, tumor volumes up to seven weeks, vs vehicle
MKN28 cells = test: Zebrafish xenotransplantation migration assay, MKN28; format: in vivo; conditions: Midostaurin 187.5 nM, Bosutinib 1250 nM, alone or combined
MKN28 [1] = test: Transwell migration assay, MKN28; format: cell-based, human; conditions: 24-hour incubation
MKN45 = test: Trans-well migration assay, MKN45; format: cell-based, human; conditions: 24-hour incubation
MKN28 [2] = test: MKN28 proliferation assay in zebrafish xenotransplantation model; format: in vivo; conditions: Midostaurin 187.5 nM, Bosutinib 1250 nM, alone or combined; 3 dpi vs 1 dpi
PTEN [3] = test: PTEN protein level by Western blotting in MKN45; format: cell-based, human; conditions: MKN45 treated with 0, 1, 2 or 4 μM
Method: FIG. 16. Pharmacological inhibition of PHF8-PKCα-Src-PTEN blocks GC progression in vitro and in vivo. […] Data form FIGS. 16B and 16D are presented as the average of 3 replicates ±SD. *p<0.05, **p<0.01 (two-tailed Student's t test). Zebrafish xenotransplantation assays using Mido or Bosu. Fluorescence microscopic analysis was conducted at 1 dpi and 3 dpi. […] Cyan, blood vessel. Scale bar, 100 μm. […] Total number of embryos used in vehicle, Mido, Bosu is shown in the bracket. Data were obtained from 3 independent studies. *p<0.05 (two-tailed Student's t test).
(§1) For immunoblotting assay, PBS-washed cells collected by scraping were directly lysed in RIPA buffer supplemented with protease inhibitor (Santa Cruz) and PhosSTOP (Sigma). Appropriate amounts of protein were separated on SDS-PAGE and then electrotransferred to PVDF membrane (PALL, Protein Washington, N.Y., USA). After the transfer, each membrane was incubated with appropriate primary antibody overnight at 4° C. and then probed with secondary antibodies conjugated with fluorescence. Odyssey Infrared Imaging System (LI-COR Biosciences, Lincoln, Nebr., USA) was utilized to detect the level of fluorescence. For immunoprecipitation assay, cell pellets were lysed in lysis buffer [50 mM Tris-HCl (pH 7.4), 150 mM NaCl, 0.5% NP40)] containing protease inhibitor (Santa Cruz). […]

PTEN [4] = test: PTEN protein level by Western blotting in MKN28; format: cell-based, human; conditions: MKN28 treated with 0, 1, 2, or 4 μM
From the text: FIG. 15. Pharmacological inhibition of PHF8-PKCα-Src-PTEN blocks GC progression in vitro and in vivo. […] Data from FIGS. 15B and 15D are presented as the average of three replicates ±SD **P<0.01 (two-tailed Student's t test). Zebrafish xeno-transplantation assays using Mido or Bosu. […] Cyan, blood vessel. […] Total number of embryos used in vehicle, Mido, and Bosu is shown in the bracket. Data were obtained from three independent studies. **P<0.01 (two-tailed Student's t test).
as §1

Compound	tumor growth (MKN28 xenografts)	proportion of embryos with migration behavior (MKN28 cells)	degree of cell migration (MKN28 [1])	degree of cell migration (MKN45)	cell proliferation of MKN28 in zebrafish embryos (MKN28 [2])	PTEN protein level (PTEN [3])	PTEN protein level (PTEN [4])
COc1cc(Nc2c(C#N)cnc3cc(OCCCN4CCN(C)CC4)c(OC)cc23)c(Cl)cc1Cl [Bosutinib]	significantly impaired tumor growth	little effect on cell migration	reduced degree of cell migration	reduced degree of cell migration	little effect on cell proliferation	increased level of PTEN expression	increased level of PTEN expression
CO[C@@H]1[C@H](N(C)C(=O)c2ccccc2)C[C@H]2O[C@]1(C)n1c3ccccc3c3c4c(c5c6ccccc6n2c5c31)C(=O)NC4 [Midostaurin]	significantly impaired tumor growth	reduced proportion of embryos with migration behavior	significantly suppressed	significantly suppressed	reduced cell proliferation of MKN28	elevated level of PTEN in a dose-dependent manner	elevated level of PTEN in a dose-dependent manner
